# Reference: the supplement of paper PMC8728848
# This is one part of the list.
# B1: EULS2 M1 (Oryza sativa) (protein)
# chain: MVYCRANPNYAMTARNGAVVLAPANPKDEYQHWIKDMRWSTSIKDEEGYPAFALVNKATGQAIKHSLGQSHPVRLVPYNPEVMDESVLWTESRDVGNGFRCIRMVNNIYLNFDAFHGDKYHGGVRDGTDIVLWKLCEGDNQRWKIQPYYILEQKLISEEDLNSAVDHHHHHH
# Columns and labels:
# Assay in all cases: glycan array binding signal (z-score within array); higher = stronger binding
# Details in all cases: glycan notation: IUPAC condensed, linker removed
# [1] = target: Gal(b1-4)GlcNAc(b1-3)Gal(b1-4)GlcNAc(b1-3)Gal(b1-4)GlcNAc(b1-3)Gal(b1-4)GlcNAc(b1-2)Man(a1-3)[Gal(b1-4)GlcNAc(b1-3)Gal(b1-4)GlcNAc(b1-3)Gal(b1-4)GlcNAc(b1-3)Gal(b1-4)GlcNAc(b1-2)Man(a1-6)]Man(b1-4)GlcNAc(b1-4)[Fuc(a1-6)]GlcNAc
# Method in brief: (§1)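 Glycan array binding is given as a within-array Z-score, which can be read as non-binding when negative. The arrays, 3228 of them, came from the Consortium for Functional Glycomics database and were retained only where the protein sequence was available. Z-scores were averaged across arrays of the same protein sequence at different concentrations or buffers and across linkers.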
# [2] = target: Gal(b1-4)GlcNAc(b1-3)Gal(b1-4)GlcNAc(b1-3)Gal(b1-4)GlcNAc(b1-3)Gal(b1-4)GlcNAc(b1-2)[Gal(b1-4)GlcNAc(b1-3)Gal(b1-4)GlcNAc(b1-3)Gal(b1-4)GlcNAc(b1-3)Gal(b1-4)GlcNAc(b1-6)]Man(a1-6)[Gal(b1-4)GlcNAc(b1-3)Gal(b1-4)GlcNAc(b1-3)Gal(b1-4)GlcNAc(b1-3)Gal(b1-4)GlcNAc(b1-2)Man(a1-3)]Man(b1-4)GlcNAc(b1-4)[Fuc(a1-6)]GlcNAc
# Method in brief: as §1
# [3] = target: Gal(b1-4)GlcNAc(b1-3)Gal(b1-4)GlcNAc(b1-3)Gal(b1-4)GlcNAc(b1-3)Gal(b1-4)GlcNAc(b1-3)Gal(b1-4)GlcNAc(b1-2)Man(a1-3)[Gal(b1-4)GlcNAc(b1-3)Gal(b1-4)GlcNAc(b1-3)Gal(b1-4)GlcNAc(b1-3)Gal(b1-4)GlcNAc(b1-3)Gal(b1-4)GlcNAc(b1-2)Man(a1-6)]Man(b1-4)GlcNAc(b1-4)GlcNAc
# Method in brief: as §1
# [4] = target: Gal(b1-4)GlcNAc(b1-3)Gal(b1-4)GlcNAc(b1-3)Gal(b1-4)GlcNAc(b1-3)Gal(b1-4)GlcNAc(b1-3)Gal(b1-4)GlcNAc(b1-2)Man(a1-3)[Gal(b1-4)GlcNAc(b1-3)Gal(b1-4)GlcNAc(b1-3)Gal(b1-4)GlcNAc(b1-3)Gal(b1-4)GlcNAc(b1-3)Gal(b1-4)GlcNAc(b1-2)Man(a1-6)]Man(b1-4)GlcNAc(b1-4)[Fuc(a1-6)]GlcNAc
# Method in brief: as §1
# [5] = target: Gal(b1-4)GlcNAc(b1-3)Gal(b1-4)GlcNAc(b1-3)Gal(b1-4)GlcNAc(b1-3)Gal(b1-4)GlcNAc(b1-3)Gal(b1-4)GlcNAc(b1-2)[Gal(b1-4)GlcNAc(b1-3)Gal(b1-4)GlcNAc(b1-3)Gal(b1-4)GlcNAc(b1-3)Gal(b1-4)GlcNAc(b1-3)Gal(b1-4)GlcNAc(b1-6)]Man(a1-6)[Gal(b1-4)GlcNAc(b1-3)Gal(b1-4)GlcNAc(b1-3)Gal(b1-4)GlcNAc(b1-3)Gal(b1-4)GlcNAc(b1-3)Gal(b1-4)GlcNAc(b1-2)Man(a1-3)]Man(b1-4)GlcNAc(b1-4)[Fuc(a1-6)]GlcNAc
# Method in brief: as §1
# [6] = target: Gal(b1-4)GlcNAc(b1-3)Gal(b1-4)GlcNAc(b1-3)Gal(b1-4)GlcNAc(b1-3)Gal(b1-4)GlcNAc(b1-3)Gal(b1-4)GlcNAc(b1-3)Gal(b1-4)GlcNAc(b1-2)Man(a1-3)[Gal(b1-4)GlcNAc(b1-3)Gal(b1-4)GlcNAc(b1-3)Gal(b1-4)GlcNAc(b1-3)Gal(b1-4)GlcNAc(b1-3)Gal(b1-4)GlcNAc(b1-3)Gal(b1-4)GlcNAc(b1-2)Man(a1-6)]Man(b1-4)GlcNAc(b1-4)GlcNAc
# Method in brief: as §1
# [7] = target: Gal(b1-4)GlcNAc(b1-3)Gal(b1-4)GlcNAc(b1-3)GalNAc
# Method in brief: as §1
# [8] = target: Gal(b1-4)GlcNAc(b1-3)Gal(b1-4)GlcNAc(b1-3)[Gal(b1-4)GlcNAc(b1-3)Gal(b1-4)GlcNAc(b1-6)]GalNAc
# Method in brief: as §1
# [9] = target: Gal(b1-4)GlcNAc(b1-3)Gal(b1-4)GlcNAc(b1-6)[Gal(b1-3)]GalNAc
# Method in brief: as §1
# [10] = target: Gal(b1-4)GlcNAc(b1-3)Gal(b1-4)[Fuc(a1-3)]GlcNAc(b1-3)Gal(b1-4)[Fuc(a1-3)]GlcNAc
# Method in brief: as §1
# [11] = target: Gal(b1-4)GlcNAc(b1-3)GalNAc
# Method in brief: as §1
# [12] = target: Gal(b1-4)GlcNAc(b1-3)[Fuc(a1-3)GlcNAc(b1-6)]Gal(b1-4)Glc
# Method in brief: as §1
# [13] = target: Gal(b1-4)GlcNAc(b1-3)[Gal(b1-4)GlcNAc(b1-6)]Gal(b1-4)GlcNAc
# Method in brief: as §1
# [14] = target: Gal(b1-4)GlcNAc(b1-3)[GlcNAc(b1-6)]Gal(b1-4)GlcNAc
# Method in brief: as §1
# [15] = target: Gal(b1-4)GlcNAc(b1-6)Gal(b1-4)GlcNAc
# Method in brief: as §1
# [16] = target: Gal(b1-4)GlcNAc(b1-6)GalNAc
# Method in brief: as §1
# [17] = target: Gal(b1-4)GlcNAc(b1-6)[Gal(b1-3)]GalNAc
# Method in brief: as §1
# [18] = target: Gal(b1-4)GlcNAc(b1-6)[Gal(b1-4)GlcNAc(b1-3)]GalNAc
# Method in brief: as §1
# Gal(b1-4)GlcNAc6P = target: Gal(b1-4)GlcNAc6P
# Method in brief: as §1
# Gal(b1-6)Gal = target: Gal(b1-6)Gal
# Method in brief: as §1
# Gal3S(b1-3)GalNAc = target: Gal3S(b1-3)GalNAc
# Method in brief: as §1
# Gal3S(b1-3)GlcNAc = target: Gal3S(b1-3)GlcNAc
# Method in brief: as §1
# [19] = target: Gal3S(b1-3)[Fuc(a1-4)]GlcNAc
# Method in brief: as §1
binder,measurement,setting,value
B1,glycan array binding signal (z-score),[1],-0.311
same,glycan array binding signal (z-score),[2],0.636
same,glycan array binding signal (z-score),[3],0.79
same,glycan array binding signal (z-score),[4],-0.042
same,glycan array binding signal (z-score),[5],0.356
same,glycan array binding signal (z-score),[6],1.27
same,glycan array binding signal (z-score),[7],0.049
same,glycan array binding signal (z-score),[8],0.287
same,glycan array binding signal (z-score),[9],-0.652
same,glycan array binding signal (z-score),[10],0.444
same,glycan array binding signal (z-score),[11],-0.156
same,glycan array binding signal (z-score),[12],-0.644
same,glycan array binding signal (z-score),[13],-2.68
same,glycan array binding signal (z-score),[14],-0.319
same,glycan array binding signal (z-score),[15],-0.514
same,glycan array binding signal (z-score),[16],0.271
same,glycan array binding signal (z-score),[17],-0.38
same,glycan array binding signal (z-score),[18],-0.195
same,glycan array binding signal (z-score),Gal(b1-4)GlcNAc6P,-0.582
same,glycan array binding signal (z-score),Gal(b1-6)Gal,-0.634
same,glycan array binding signal (z-score),Gal3S(b1-3)GalNAc,-0.716
same,glycan array binding signal (z-score),Gal3S(b1-3)GlcNAc,-0.552
same,glycan array binding signal (z-score),[19],-0.905

# Part of the list above, as tab-separated lines.
binder	measurement	setting	value
B1	glycan array binding signal (z-score)	[1]	-0.311
same	glycan array binding signal (z-score)	Gal3S(b1-3)GalNAc	-0.716
